Assay results from paper PMC8093518, “PprA Protein Inhibits DNA Strand Exchange and ATP Hydrolysis of Deinococcus RecA and Regulates the Recombination in Gamma-Irradiated Cells” (Frontiers in Cell and Developmental Biology, 2021).
These are yes or no findings as the source states them, for the method shown. For some assays here: Binding seen in cells or lysates may run through a third protein. Some entries that bind do so weakly or less than the wild type. Tags and fused reporters may be left off the sequences shown.

What was measured:
[1] = target: T1, DrRecA (RecA of Deinococcus radiodurans) fused to the T18 or T25 domain of adenylate cyclase, BACTH construct (D. radiodurans) (UniProt P42443); assay: two-hybrid; bacterial two-hybrid (BACTH) in E. coli BTH101, T18 and T25 tags at the C-terminus; white-blue colonies on X-Gal/IPTG plates at 30°C and β-galactosidase activity in liquid culture (Miller units)
T1 sequence: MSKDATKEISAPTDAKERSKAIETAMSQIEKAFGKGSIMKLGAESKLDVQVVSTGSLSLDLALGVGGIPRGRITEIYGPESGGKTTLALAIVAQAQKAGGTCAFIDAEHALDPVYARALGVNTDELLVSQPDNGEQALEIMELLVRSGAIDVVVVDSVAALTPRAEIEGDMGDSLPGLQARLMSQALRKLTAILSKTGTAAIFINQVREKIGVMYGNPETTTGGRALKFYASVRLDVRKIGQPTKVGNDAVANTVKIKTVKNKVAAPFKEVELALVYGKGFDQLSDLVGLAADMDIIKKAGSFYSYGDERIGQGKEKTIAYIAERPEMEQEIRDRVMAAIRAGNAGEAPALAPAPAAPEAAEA

[2] = target: T2, PprA of Deinococcus radiodurans fused to the T18 or T25 domain of adenylate cyclase, BACTH construct (D. radiodurans) (UniProt O32504); assay: as above
T2 sequence: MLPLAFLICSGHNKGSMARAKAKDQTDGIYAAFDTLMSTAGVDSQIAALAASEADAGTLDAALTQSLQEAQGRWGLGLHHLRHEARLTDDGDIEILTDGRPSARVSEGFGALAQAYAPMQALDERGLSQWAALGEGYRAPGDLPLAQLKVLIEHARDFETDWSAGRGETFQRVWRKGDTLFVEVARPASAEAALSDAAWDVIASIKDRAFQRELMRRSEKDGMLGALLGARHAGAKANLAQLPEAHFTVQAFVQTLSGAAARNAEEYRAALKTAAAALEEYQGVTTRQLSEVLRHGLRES

[3] = target: T3, poly His-tagged PprA expressed in D. radiodurans (D. radiodurans) (UniProt O32504); assay: co-IP; cell-free extracts of D. radiodurans co-expressing T18 tagged and His tagged proteins; immunoprecipitation with anti-His or anti-T18 antibody, immunoblot with the other antibody
T3 sequence: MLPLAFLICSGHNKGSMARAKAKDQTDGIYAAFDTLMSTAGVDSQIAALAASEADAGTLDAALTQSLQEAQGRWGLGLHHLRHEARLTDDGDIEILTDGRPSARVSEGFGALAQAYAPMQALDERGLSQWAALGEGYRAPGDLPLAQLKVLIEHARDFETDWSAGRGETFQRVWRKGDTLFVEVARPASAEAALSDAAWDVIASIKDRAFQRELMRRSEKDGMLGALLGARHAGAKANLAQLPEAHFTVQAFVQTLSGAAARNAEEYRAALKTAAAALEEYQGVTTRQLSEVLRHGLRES

[4] = target: T4, T18 tagged PprA expressed in D. radiodurans (D. radiodurans) (UniProt O32504); assay: as above
T4 sequence: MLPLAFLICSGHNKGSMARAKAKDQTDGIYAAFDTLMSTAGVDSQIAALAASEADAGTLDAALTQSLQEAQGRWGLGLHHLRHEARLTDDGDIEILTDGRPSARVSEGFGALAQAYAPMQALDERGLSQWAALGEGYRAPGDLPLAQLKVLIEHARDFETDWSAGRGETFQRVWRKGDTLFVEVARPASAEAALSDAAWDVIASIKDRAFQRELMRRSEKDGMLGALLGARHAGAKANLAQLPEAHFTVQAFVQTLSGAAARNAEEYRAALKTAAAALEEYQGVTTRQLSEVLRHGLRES

B1: DrRecA (RecA of Deinococcus radiodurans) fused to the T18 or T25 domain of adenylate cyclase, BACTH construct (protein, UniProt P42443 1-363)
chain: MSKDATKEISAPTDAKERSKAIETAMSQIEKAFGKGSIMKLGAESKLDVQVVSTGSLSLDLALGVGGIPRGRITEIYGPESGGKTTLALAIVAQAQKAGGTCAFIDAEHALDPVYARALGVNTDELLVSQPDNGEQALEIMELLVRSGAIDVVVVDSVAALTPRAEIEGDMGDSLPGLQARLMSQALRKLTAILSKTGTAAIFINQVREKIGVMYGNPETTTGGRALKFYASVRLDVRKIGQPTKVGNDAVANTVKIKTVKNKVAAPFKEVELALVYGKGFDQLSDLVGLAADMDIIKKAGSFYSYGDERIGQGKEKTIAYIAERPEMEQEIRDRVMAAIRAGNAGEAPALAPAPAAPEAAEA
- binding [1]: binds
- binding [2]: binds

B2: T18 tagged DrRecA expressed in D. radiodurans (protein, UniProt P42443 1-363)
chain: MSKDATKEISAPTDAKERSKAIETAMSQIEKAFGKGSIMKLGAESKLDVQVVSTGSLSLDLALGVGGIPRGRITEIYGPESGGKTTLALAIVAQAQKAGGTCAFIDAEHALDPVYARALGVNTDELLVSQPDNGEQALEIMELLVRSGAIDVVVVDSVAALTPRAEIEGDMGDSLPGLQARLMSQALRKLTAILSKTGTAAIFINQVREKIGVMYGNPETTTGGRALKFYASVRLDVRKIGQPTKVGNDAVANTVKIKTVKNKVAAPFKEVELALVYGKGFDQLSDLVGLAADMDIIKKAGSFYSYGDERIGQGKEKTIAYIAERPEMEQEIRDRVMAAIRAGNAGEAPALAPAPAAPEAAEA
- binding [3]: binds

B3: poly His-tagged DrRecA expressed in D. radiodurans (protein, UniProt P42443 1-363)
chain: MSKDATKEISAPTDAKERSKAIETAMSQIEKAFGKGSIMKLGAESKLDVQVVSTGSLSLDLALGVGGIPRGRITEIYGPESGGKTTLALAIVAQAQKAGGTCAFIDAEHALDPVYARALGVNTDELLVSQPDNGEQALEIMELLVRSGAIDVVVVDSVAALTPRAEIEGDMGDSLPGLQARLMSQALRKLTAILSKTGTAAIFINQVREKIGVMYGNPETTTGGRALKFYASVRLDVRKIGQPTKVGNDAVANTVKIKTVKNKVAAPFKEVELALVYGKGFDQLSDLVGLAADMDIIKKAGSFYSYGDERIGQGKEKTIAYIAERPEMEQEIRDRVMAAIRAGNAGEAPALAPAPAAPEAAEA
- binding [4]: binds

B4: Recombinant PprA, wild type, purified (natural protein, D. radiodurans, UniProt O32504 1-300, looked up)
chain: MLPLAFLICSGHNKGSMARAKAKDQTDGIYAAFDTLMSTAGVDSQIAALAASEADAGTLDAALTQSLQEAQGRWGLGLHHLRHEARLTDDGDIEILTDGRPSARVSEGFGALAQAYAPMQALDERGLSQWAALGEGYRAPGDLPLAQLKVLIEHARDFETDWSAGRGETFQRVWRKGDTLFVEVARPASAEAALSDAAWDVIASIKDRAFQRELMRRSEKDGMLGALLGARHAGAKANLAQLPEAHFTVQAFVQTLSGAAARNAEEYRAALKTAAAALEEYQGVTTRQLSEVLRHGLRES
notes: PprA of Deinococcus radiodurans, from plasmid pETpprA constructed earlier (Rajpurohit and Misra, 2013); His tag removed with Factor-Xa; also called PprA^wt; pETpprA; source: E. coli BL21(DE3) pLysS, purified (Ni-chelating Sepharose, Q-sepharose, Heparin, Superdex-200)
- binding [1]: binds
